Patent US20230220047A1, “PEPTIDES FOR TREATMENT OF SEPSIS AND CANCER” (NORWEGIAN UNIVERSITY OF SCIENCE AND TECHNOLOGY (NTNU), priority 2020, published 2023)
No constants are given. Whether binding was seen depends on the method and setting. For part of these data: In cells and extracts the contact can be indirect. Some entries that bind do so weakly or less than the wild type. Where a sequence is shown, tags or fusion partners need not be part of it.

Protein sequences, listed by entry. Tags and fused reporters are not part of them. Residues count along the entry.
UniProt Q86XR7, residues 2-235: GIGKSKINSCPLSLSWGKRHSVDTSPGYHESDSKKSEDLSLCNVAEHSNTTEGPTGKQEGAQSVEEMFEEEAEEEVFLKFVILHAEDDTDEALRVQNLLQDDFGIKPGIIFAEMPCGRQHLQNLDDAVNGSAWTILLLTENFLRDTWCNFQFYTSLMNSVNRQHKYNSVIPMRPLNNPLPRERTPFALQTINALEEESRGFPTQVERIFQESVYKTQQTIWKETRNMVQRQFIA
UniProt P58753: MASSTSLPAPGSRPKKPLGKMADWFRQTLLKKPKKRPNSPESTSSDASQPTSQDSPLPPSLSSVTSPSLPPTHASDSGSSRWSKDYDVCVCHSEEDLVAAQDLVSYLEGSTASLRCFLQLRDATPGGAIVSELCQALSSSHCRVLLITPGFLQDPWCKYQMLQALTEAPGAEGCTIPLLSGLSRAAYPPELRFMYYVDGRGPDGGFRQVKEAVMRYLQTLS

Assays:
[1] = molecular target: TRAM^YFP (human TRAM fused to YFP) (human) (UniProt Q86XR7); experiment: anti-Flag co-precipitation from HEK 293T lysates, anti-GFP Western blot
[2] = molecular target: TRAM^YFP (human TRAM fused to YFP) (human) (UniProt Q86XR7); experiment: anti-Flag co-precipitation from HEK 293T lysates, Western blot
[3] = molecular target: human TRAM (endogenous in primary human macrophages, or overexpressed in HEK 293T cells) (human) (UniProt Q86XR7); experiment: endogenous co-precipitation with anti-SLAMF1 mAb (E-11) from primary human macrophages, Western blot
[4] = molecular target: Mal^Flag (human Mal with Flag tag, overexpressed in HEK293T cells) (human) (UniProt P58753); experiment: anti-Flag IP from HEK293T cells co-expressing Mal^Flag and SLAMF1, Western blot

B1: SLAMF1^Flag (human SLAMF1 with C-terminal Flag tag, wild type) (receptor, UniProt Q13291 21-335, looked up, not shown: small tags and cut ends)
chain: ASYGTGGRMMNCPKILRQLGSKVLLPLTYERINKSMNKSIHIVVTMAKSLENSVENKIVSLDPSEAGPPRYLGDRYKFYLENLTLGIRESRKEDEGWYLMTLEKNVSVQRFCLQLRLYEQVSTPEIKVLNKTQENGTCTLILGCTVEKGDHVAYSWSEKAGTHPLNPANSSHLLSLTLGPQHADNIYICTVSNPISNNSQTFSPWPGCRTDPSETKPWAVYAGLLGGVIMILIMVVILQLRRRGKTNHYQTTVEKKSLTIYAQVQKPGPLQKKLDSFPAQDPCTTIYVAATEPVPESVQETNSITVYASVTLPES
Q: B1 was tested. Which binding [1] did it give?
A: binds

B2: SLAMF1^Flag S335A (receptor, human, UniProt Q13291 21-335, looked up, not shown: small tags and cut ends)
chain: ASYGTGGRMMNCPKILRQLGSKVLLPLTYERINKSMNKSIHIVVTMAKSLENSVENKIVSLDPSEAGPPRYLGDRYKFYLENLTLGIRESRKEDEGWYLMTLEKNVSVQRFCLQLRLYEQVSTPEIKVLNKTQENGTCTLILGCTVEKGDHVAYSWSEKAGTHPLNPANSSHLLSLTLGPQHADNIYICTVSNPISNNSQTFSPWPGCRTDPSETKPWAVYAGLLGGVIMILIMVVILQLRRRGKTNHYQTTVEKKSLTIYAQVQKPGPLQKKLDSFPAQDPCTTIYVAATEPVPESVQETNSITVYASVTLPEA
Q: For B2, which binding [2] is on record?
A: binds

B3: SLAMF1^Flag P333T (receptor, human, UniProt Q13291 21-335, looked up, not shown: small tags and cut ends)
chain: ASYGTGGRMMNCPKILRQLGSKVLLPLTYERINKSMNKSIHIVVTMAKSLENSVENKIVSLDPSEAGPPRYLGDRYKFYLENLTLGIRESRKEDEGWYLMTLEKNVSVQRFCLQLRLYEQVSTPEIKVLNKTQENGTCTLILGCTVEKGDHVAYSWSEKAGTHPLNPANSSHLLSLTLGPQHADNIYICTVSNPISNNSQTFSPWPGCRTDPSETKPWAVYAGLLGGVIMILIMVVILQLRRRGKTNHYQTTVEKKSLTIYAQVQKPGPLQKKLDSFPAQDPCTTIYVAATEPVPESVQETNSITVYASVTLTES
Q: Which binding [2] does the source give for B3 here?
A: binds

B4: SLAMF1 (human, no tag stated; overexpressed in HEK293T cells or endogenous in primary human macrophages) (receptor, UniProt Q13291 21-335, looked up)
chain: ASYGTGGRMMNCPKILRQLGSKVLLPLTYERINKSMNKSIHIVVTMAKSLENSVENKIVSLDPSEAGPPRYLGDRYKFYLENLTLGIRESRKEDEGWYLMTLEKNVSVQRFCLQLRLYEQVSTPEIKVLNKTQENGTCTLILGCTVEKGDHVAYSWSEKAGTHPLNPANSSHLLSLTLGPQHADNIYICTVSNPISNNSQTFSPWPGCRTDPSETKPWAVYAGLLGGVIMILIMVVILQLRRRGKTNHYQTTVEKKSLTIYAQVQKPGPLQKKLDSFPAQDPCTTIYVAATEPVPESVQETNSITVYASVTLPES
Q: With B4 as the binder, how does the binding [3] read?
A: binds

Q: And the binding [4]?
A: binds

B5: SLAMF1^Flag T331V (receptor, human, UniProt Q13291 21-335, looked up, not shown: small tags and cut ends)
chain: ASYGTGGRMMNCPKILRQLGSKVLLPLTYERINKSMNKSIHIVVTMAKSLENSVENKIVSLDPSEAGPPRYLGDRYKFYLENLTLGIRESRKEDEGWYLMTLEKNVSVQRFCLQLRLYEQVSTPEIKVLNKTQENGTCTLILGCTVEKGDHVAYSWSEKAGTHPLNPANSSHLLSLTLGPQHADNIYICTVSNPISNNSQTFSPWPGCRTDPSETKPWAVYAGLLGGVIMILIMVVILQLRRRGKTNHYQTTVEKKSLTIYAQVQKPGPLQKKLDSFPAQDPCTTIYVAATEPVPESVQETNSITVYASVVLPES
Q: How did the binding [2] turn out when B5 was run?
A: binds

B6: SLAMF1^Flag P315S (receptor, human, UniProt Q13291 21-335, looked up, not shown: small tags and cut ends)
chain: ASYGTGGRMMNCPKILRQLGSKVLLPLTYERINKSMNKSIHIVVTMAKSLENSVENKIVSLDPSEAGPPRYLGDRYKFYLENLTLGIRESRKEDEGWYLMTLEKNVSVQRFCLQLRLYEQVSTPEIKVLNKTQENGTCTLILGCTVEKGDHVAYSWSEKAGTHPLNPANSSHLLSLTLGPQHADNIYICTVSNPISNNSQTFSPWPGCRTDPSETKPWAVYAGLLGGVIMILIMVVILQLRRRGKTNHYQTTVEKKSLTIYAQVQKPGPLQKKLDSFPAQDPCTTIYVAATEPVSESVQETNSITVYASVTLPES
Q: B6 was tested. Which binding [2] did it give?
A: binds

B7: SLAMF1^Flag T321A (receptor, human, UniProt Q13291 21-335, looked up, not shown: small tags and cut ends)
chain: ASYGTGGRMMNCPKILRQLGSKVLLPLTYERINKSMNKSIHIVVTMAKSLENSVENKIVSLDPSEAGPPRYLGDRYKFYLENLTLGIRESRKEDEGWYLMTLEKNVSVQRFCLQLRLYEQVSTPEIKVLNKTQENGTCTLILGCTVEKGDHVAYSWSEKAGTHPLNPANSSHLLSLTLGPQHADNIYICTVSNPISNNSQTFSPWPGCRTDPSETKPWAVYAGLLGGVIMILIMVVILQLRRRGKTNHYQTTVEKKSLTIYAQVQKPGPLQKKLDSFPAQDPCTTIYVAATEPVPESVQEANSITVYASVTLPES
Q: With B7 as the binder, how does the binding [2] read?
A: binds

B8: SLAMF1^Flag S329A/T331I (receptor, human, UniProt Q13291 21-335, looked up, not shown: small tags and cut ends)
chain: ASYGTGGRMMNCPKILRQLGSKVLLPLTYERINKSMNKSIHIVVTMAKSLENSVENKIVSLDPSEAGPPRYLGDRYKFYLENLTLGIRESRKEDEGWYLMTLEKNVSVQRFCLQLRLYEQVSTPEIKVLNKTQENGTCTLILGCTVEKGDHVAYSWSEKAGTHPLNPANSSHLLSLTLGPQHADNIYICTVSNPISNNSQTFSPWPGCRTDPSETKPWAVYAGLLGGVIMILIMVVILQLRRRGKTNHYQTTVEKKSLTIYAQVQKPGPLQKKLDSFPAQDPCTTIYVAATEPVPESVQETNSITVYAAVILPES
Q: For B8, which binding [2] is on record?
A: binds
